Experimental data from PubChem BioAssay AID248 (DTP/NCI, 2004).
The list shows only some results of the screen, not a fair sample: it gathers tests that were run many times, whatever their T/C, doses with no T/C, and many T/C values between a quarter and a half above the control. Further doses and runs are listed elsewhere. T/C gives the treated animals as a percentage of the vehicle group. Where survival is the endpoint, the PubChem record calls one and a half times the control and up active, and a quarter to a half above the control has no call in these data; cut-offs in other NCI protocols can differ. Schedules are NCI's codes, read here as Q, the interval in days (D) or hours (H), X, the number of doses. Some entries hold several experiments; their values stand side by side, smallest first. Counts like (3×) count equal records among those shown. Some schedule codes hold Z or #, which are not explained here. Some T/C values are followed by the survivors on the day toxicity was checked, most often the fifth; without a count, all were alive then.

Tested on: L1210 leukemia ip in BDF1 mice, survival T/C
Assay: NCI In Vivo Anticancer Drug Screen. Data for tumor model L1210 Leukemia (intraperitoneal) in B6D2F1 (BDF1) mice
Settings: T/C endpoint: mean survival time, higher T/C = longer survival

In the case of `O=c1[nH]c(=O)n(C2CC(O)C(CO)O2)cc1F` (stereo not given), the T/C (dose: 10.0 mg/kg/injection, schedule: Q01DX009 (ip), vehicle: saline) is reported as 126 % of control, the T/C (dose: 12.5 mg/kg/injection, schedule: Q#A X Z (ip), vehicle: saline) is reported as 131 and 132 % of control and the T/C (dose: 18.0 mg/kg/injection, schedule: Q01DX009 (ip), vehicle: saline) is reported as 101, 114, 117, 118 % of control. For the same compound, the T/C (dose: 20.0 mg/kg/injection, schedule: Q01DX009 (ip), vehicle: saline) was 120, 122, 130, 138 % of control, the T/C (dose: 20.0 mg/kg/injection, schedule: Q01DX015 (ip), vehicle: saline) was 134 % of control and the T/C (dose: 25.0 mg/kg/injection, schedule: Q01DX009 (ip), vehicle: saline) was 129 % of control. The T/C (dose: 25.0 mg/kg/injection, schedule: Q01DX Z (ip), vehicle: carboxymethylcellulose (CMC)) was 127 % of control, the T/C (dose: 25.0 mg/kg/injection, schedule: Q01DX Z (ip), vehicle: saline) was 131 % of control and the T/C (dose: 25.0 mg/kg/injection, schedule: Q#A X034 (ip), vehicle: saline) was 130 % of control. The T/C (dose: 25.0 mg/kg/injection, schedule: Q#A X Z (ip), vehicle: saline) was 142 and 146 % of control, the T/C (dose: 30.0 mg/kg/injection, schedule: Q01DX005 (ip), vehicle: water, evaluated on day 21) was 111 % of control and the T/C (dose: 30.0 mg/kg/injection, schedule: Q01DX005 (ip), vehicle: water, evaluated on day 30) was 96, 106, 109 % of control. For the same compound, the T/C (dose: 30.0 mg/kg/injection, schedule: Q01DX015 (ip), vehicle: saline) was 136 % of control, the T/C (dose: 36.0 mg/kg/injection, schedule: Q01DX009 (ip), vehicle: saline) was 114, 121, 123 % of control (2×) and the T/C (dose: 40.0 mg/kg/injection, schedule: Q01DX009 (ip), vehicle: saline) was 125, 138, 139, 142 % of control. The T/C (dose: 40.0 mg/kg/injection, schedule: Q01DX Z (ip), vehicle: other) was 127 and 143 % of control, the T/C (dose: 43.2 mg/kg/injection, schedule: Q01DX009 (ip), vehicle: saline) was 144 % of control and the T/C (dose: 45.0 mg/kg/injection, schedule: Q01DX015 (ip), vehicle: saline) was 135 % of control. For the same compound, the T/C (dose: 45.0 mg/kg/injection, schedule: Q01DX015 (ip), vehicle: water) was 126 % of control, the T/C (dose: 50.0 mg/kg/injection, schedule: Q01DX005 (ip), vehicle: water, evaluated on day 21) was 111 % of control and the T/C (dose: 50.0 mg/kg/injection, schedule: Q01DX005 (ip), vehicle: water, evaluated on day 30) was 97, 109, 122 % of control. The T/C (dose: 50.0 mg/kg/injection, schedule: Q01DX009 (ip), vehicle: saline) was 138 and 147 % of control, the T/C (dose: 50.0 mg/kg/injection, schedule: Q01DX017 (ip), vehicle: saline) was 131 % of control and the T/C (dose: 50.0 mg/kg/injection, schedule: Q01DX Z (im), vehicle: saline) was 127 % of control. The T/C (dose: 50.0 mg/kg/injection, schedule: Q01DX Z (ip), vehicle: carboxymethylcellulose (CMC)) was 127 % of control, the T/C (dose: 50.0 mg/kg/injection, schedule: Q01DX Z (ip), vehicle: saline) was 127, 130, 136, 137 % of control and the T/C (dose: 50.0 mg/kg/injection, schedule: Q01DX Z (sc), vehicle: saline) was 127 % of control. The T/C (dose: 60.0 mg/kg/injection, schedule: Q01DX009 (ip), vehicle: saline) was 138 % of control, the T/C (dose: 67.0 mg/kg/injection, schedule: Q01DX Z (ip), vehicle: saline) was 134 % of control and the T/C (dose: 68.0 mg/kg/injection, schedule: Q01DX015 (ip), vehicle: water) was 136 % of control. The T/C (dose: 71.0 mg/kg/injection, schedule: Q04DX002 (ip), vehicle: saline) was 103, 105 (2×), 115 % of control, the T/C (dose: 72.0 mg/kg/injection, schedule: Q01DX009 (ip), vehicle: saline, evaluated on day 30) was 131, 140, 147, 158 % of control and the T/C (dose: 72.0 mg/kg/injection, schedule: Q01DX009 (ip), vehicle: saline, evaluated on day 60) was 144 % of control. For the same compound, the T/C (dose: 74.0 mg/kg/injection, schedule: Q01DX009 (ip), vehicle: saline) was 137 and 141 % of control, the T/C (dose: 80.0 mg/kg/injection, schedule: Q01DX009 (ip), vehicle: saline, evaluated on day 5) was 142 % of control and the T/C (dose: 80.0 mg/kg/injection, schedule: Q01DX009 (ip), vehicle: saline, evaluated on day 30) was 142, 151, 153, 154 % of control. The T/C (dose: 80.0 mg/kg/injection, schedule: Q01DX015 (ip), vehicle: saline) was 148 % of control, the T/C (dose: 80.0 mg/kg/injection, schedule: Q## X009 (ip), vehicle: saline) was 142 % of control and the T/C (dose: 100.0 mg/kg/injection, schedule: Q01DX005 (ip), vehicle: saline, evaluated on day 30) was 139 % of control. For the same compound, the T/C (dose: 100.0 mg/kg/injection, schedule: Q01DX005 (ip), vehicle: saline, run until all animals had died) was 139 % of control, the T/C (dose: 100.0 mg/kg/injection, schedule: Q01DX006 (iv), vehicle: saline) was 126 % of control and the T/C (dose: 100.0 mg/kg/injection, schedule: Q01DX009 (ip), vehicle: saline) was 127 % of control. For the same compound, the T/C (dose: 100.0 mg/kg/injection, schedule: Q01DX Z (im), vehicle: saline) was 141 % of control, the T/C (dose: 100.0 mg/kg/injection, schedule: Q01DX Z (ip), vehicle: saline) was 128 % of control and the T/C (dose: 100.0 mg/kg/injection, schedule: Q01DX Z (oral), vehicle: saline) was 131 % of control [5 of 6 alive]. For the same compound, the T/C (dose: 100.0 mg/kg/injection, schedule: Q02DX009 (ip), vehicle: saline) was 126 % of control, the T/C (dose: 100.0 mg/kg/injection, schedule: Q#A X034 (ip), vehicle: saline) was 130 % of control and the T/C (dose: 110.0 mg/kg/injection, schedule: Q01DX009 (ip), vehicle: saline) was 142 % of control. For the same compound, the T/C (dose: 118.0 mg/kg/injection, schedule: Q## X032 (ip), vehicle: saline) was 131 % of control and the T/C (dose: 120.0 mg/kg/injection, schedule: Q01DX009 (ip), vehicle: saline, evaluated on day 5) was 149 % of control.
